Reference: patent publication US20100272709A1 (GENERAL HOSPITAL, published 2010)
Results are given in words; binding and its absence hold for the method and conditions named. Some binding calls cover weakened binding; strength is not graded here. Where a sequence is shown, tags or fusion partners need not be part of it.

Target: T1, EYFP-dynamin wild type fusion (UniProt Q05193 1-864)
T1 construct: also called YFP-WT; EYFP-dynWT; not shown: EYFP tag
T1 sequence (looked up): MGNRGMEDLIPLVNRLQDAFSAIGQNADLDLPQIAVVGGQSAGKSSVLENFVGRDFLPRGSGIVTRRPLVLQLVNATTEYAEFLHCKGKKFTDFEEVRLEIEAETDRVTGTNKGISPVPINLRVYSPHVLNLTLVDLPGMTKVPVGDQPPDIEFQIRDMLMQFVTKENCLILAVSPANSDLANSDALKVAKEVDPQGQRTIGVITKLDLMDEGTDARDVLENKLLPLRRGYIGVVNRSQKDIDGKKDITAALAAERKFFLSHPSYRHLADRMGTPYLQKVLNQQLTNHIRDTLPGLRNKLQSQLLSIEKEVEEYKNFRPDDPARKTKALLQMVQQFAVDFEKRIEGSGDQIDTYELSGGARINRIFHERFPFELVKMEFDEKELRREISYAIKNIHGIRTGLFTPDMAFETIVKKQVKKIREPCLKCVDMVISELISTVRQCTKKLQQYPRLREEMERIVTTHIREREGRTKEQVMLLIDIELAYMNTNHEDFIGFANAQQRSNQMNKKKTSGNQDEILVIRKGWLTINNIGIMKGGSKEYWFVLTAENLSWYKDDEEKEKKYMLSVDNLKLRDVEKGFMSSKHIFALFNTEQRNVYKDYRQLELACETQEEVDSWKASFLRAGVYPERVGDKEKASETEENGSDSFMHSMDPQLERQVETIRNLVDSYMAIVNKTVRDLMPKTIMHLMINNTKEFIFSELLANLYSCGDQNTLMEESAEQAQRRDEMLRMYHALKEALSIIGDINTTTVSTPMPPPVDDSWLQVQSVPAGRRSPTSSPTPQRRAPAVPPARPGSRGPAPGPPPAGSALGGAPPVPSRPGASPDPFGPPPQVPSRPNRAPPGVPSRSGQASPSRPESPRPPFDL
Test: FLIM/FRET in live COS cells

B1: ECFP-dynamin wild type fusion (protein, UniProt Q05193 1-864, looked up, not shown: large carriers)
chain: MGNRGMEDLIPLVNRLQDAFSAIGQNADLDLPQIAVVGGQSAGKSSVLENFVGRDFLPRGSGIVTRRPLVLQLVNATTEYAEFLHCKGKKFTDFEEVRLEIEAETDRVTGTNKGISPVPINLRVYSPHVLNLTLVDLPGMTKVPVGDQPPDIEFQIRDMLMQFVTKENCLILAVSPANSDLANSDALKVAKEVDPQGQRTIGVITKLDLMDEGTDARDVLENKLLPLRRGYIGVVNRSQKDIDGKKDITAALAAERKFFLSHPSYRHLADRMGTPYLQKVLNQQLTNHIRDTLPGLRNKLQSQLLSIEKEVEEYKNFRPDDPARKTKALLQMVQQFAVDFEKRIEGSGDQIDTYELSGGARINRIFHERFPFELVKMEFDEKELRREISYAIKNIHGIRTGLFTPDMAFETIVKKQVKKIREPCLKCVDMVISELISTVRQCTKKLQQYPRLREEMERIVTTHIREREGRTKEQVMLLIDIELAYMNTNHEDFIGFANAQQRSNQMNKKKTSGNQDEILVIRKGWLTINNIGIMKGGSKEYWFVLTAENLSWYKDDEEKEKKYMLSVDNLKLRDVEKGFMSSKHIFALFNTEQRNVYKDYRQLELACETQEEVDSWKASFLRAGVYPERVGDKEKASETEENGSDSFMHSMDPQLERQVETIRNLVDSYMAIVNKTVRDLMPKTIMHLMINNTKEFIFSELLANLYSCGDQNTLMEESAEQAQRRDEMLRMYHALKEALSIIGDINTTTVSTPMPPPVDDSWLQVQSVPAGRRSPTSSPTPQRRAPAVPPARPGSRGPAPGPPPAGSALGGAPPVPSRPGASPDPFGPPPQVPSRPNRAPPGVPSRSGQASPSRPESPRPPFDL
B1 was tested, and the binding was “binds”.

B2: ECFP-dynI690K fusion (other, UniProt Q05193 1-864, looked up)
chain: MGNRGMEDLIPLVNRLQDAFSAIGQNADLDLPQIAVVGGQSAGKSSVLENFVGRDFLPRGSGIVTRRPLVLQLVNATTEYAEFLHCKGKKFTDFEEVRLEIEAETDRVTGTNKGISPVPINLRVYSPHVLNLTLVDLPGMTKVPVGDQPPDIEFQIRDMLMQFVTKENCLILAVSPANSDLANSDALKVAKEVDPQGQRTIGVITKLDLMDEGTDARDVLENKLLPLRRGYIGVVNRSQKDIDGKKDITAALAAERKFFLSHPSYRHLADRMGTPYLQKVLNQQLTNHIRDTLPGLRNKLQSQLLSIEKEVEEYKNFRPDDPARKTKALLQMVQQFAVDFEKRIEGSGDQIDTYELSGGARINRIFHERFPFELVKMEFDEKELRREISYAIKNIHGIRTGLFTPDMAFETIVKKQVKKIREPCLKCVDMVISELISTVRQCTKKLQQYPRLREEMERIVTTHIREREGRTKEQVMLLIDIELAYMNTNHEDFIGFANAQQRSNQMNKKKTSGNQDEILVIRKGWLTINNIGIMKGGSKEYWFVLTAENLSWYKDDEEKEKKYMLSVDNLKLRDVEKGFMSSKHIFALFNTEQRNVYKDYRQLELACETQEEVDSWKASFLRAGVYPERVGDKEKASETEENGSDSFMHSMDPQLERQVETIRNLVDSYMAIVNKTVRDLMPKTIMHLMKNNTKEFIFSELLANLYSCGDQNTLMEESAEQAQRRDEMLRMYHALKEALSIIGDINTTTVSTPMPPPVDDSWLQVQSVPAGRRSPTSSPTPQRRAPAVPPARPGSRGPAPGPPPAGSALGGAPPVPSRPGASPDPFGPPPQVPSRPNRAPPGVPSRSGQASPSRPESPRPPFDL
notes: it is read as I690K; also called CFP-1690K; not shown: ECFP tag
In the case of B2, the binding is reported as “binds”.
